These are yes or no findings as the source states them, for the method shown. In cells and extracts the contact can be indirect. Some entries that bind do so weakly or less than the wild type.

Amino acid sequences for entries named in this document (tags omitted).
UniProt P30904: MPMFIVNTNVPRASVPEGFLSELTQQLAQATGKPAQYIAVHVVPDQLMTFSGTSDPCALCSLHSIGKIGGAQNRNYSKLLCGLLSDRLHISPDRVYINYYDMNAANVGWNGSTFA

The record followed here is publication PMC7950233.

The experiment has as its target T1, CD74 receptor (rat (endogenous in primary joint capsule fibroblasts of SD rats)) (UniProt P10247).
T1 sequence: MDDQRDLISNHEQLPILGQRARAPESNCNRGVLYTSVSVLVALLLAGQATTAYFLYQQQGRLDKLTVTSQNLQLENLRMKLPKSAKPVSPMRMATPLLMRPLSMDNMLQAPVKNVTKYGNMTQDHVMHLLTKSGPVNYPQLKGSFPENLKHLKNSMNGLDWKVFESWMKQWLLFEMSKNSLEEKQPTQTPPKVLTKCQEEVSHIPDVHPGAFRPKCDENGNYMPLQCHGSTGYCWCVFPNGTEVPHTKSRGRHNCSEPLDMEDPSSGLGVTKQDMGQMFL
Put plainly: co-IP; total lysates (500 ug) of primary rat JFs treated with MIF for 24 h; precleared with protein A plus G-Sepharose, incubated with anti-MIF or anti-CD74 antibody at 4 C, protein A plus G-Sepharose; immunoblot with anti-MIF or anti-CD74.

As to “Macrophage migration inhibitory factor (from UniProt P30904 1-115)”, the binding result is “binds”.
